Assay results: the supplement of paper PMC7661543
± gives the standard deviation of the averaged measurements. Differences between knockout arms are mostly noise.

Tested on: SKBR3
Assay: relative cell number vs DMSO control (72 h) (% of DMSO); higher = less growth inhibition (more cells)
Description: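 QMAP-Seq: a pool of 5 breast cancer cell lines (ZR-75-1, SKBR3, HCC-38, MDA-MB-231, BT-20), each carrying 12 doxycycline-inducible Cas9 sgRNA perturbations (11 knockouts plus non-targeting sgNT), was treated with compounds for 72 h at four 10-fold doses (10 nM-10 uM or 1 nM-1 uM range). Barcodes were amplified and sequenced, and cell number was interpolated from 293T spike-in standard curves. The result is expressed as % of the median of DMSO wells. Two biological replicates.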

O=C(Nc1ccc([N+](=O)[O-])cc1Cl)c1cc(Cl)ccc1O [Niclosamide]
Conditions | relative cell number
sgRNA knockout: sgATF3, 10 nM | 84.1 ± 7.3
sgRNA knockout: sgATF3, 100 nM | 78.9 ± 11
sgRNA knockout: sgATF3, 1000 nM | 116 ± 36
sgRNA knockout: sgATF3, 10000 nM | 66.2 ± 2.3
sgRNA knockout: sgATF4, 10 nM | 89.8 ± 14
sgRNA knockout: sgATF4, 100 nM | 79.1 ± 3.4
sgRNA knockout: sgATF4, 1000 nM | 101 ± 7
sgRNA knockout: sgATF4, 10000 nM | 40.3 ± 6.4
sgRNA knockout: sgATF6, 10 nM | 96.4 ± 15
sgRNA knockout: sgATF6, 100 nM | 79.4 ± 16
sgRNA knockout: sgATF6, 1000 nM | 104 ± 12
sgRNA knockout: sgATF6, 10000 nM | 58 ± 2
sgRNA knockout: sgATG7, 10 nM | 105 ± 14
sgRNA knockout: sgATG7, 100 nM | 97.7 ± 6.1
sgRNA knockout: sgATG7, 1000 nM | 120 ± 2.5
sgRNA knockout: sgATG7, 10000 nM | 54.8 ± 8.5
sgRNA knockout: sgERN1, 10 nM | 83.5 ± 3.5
sgRNA knockout: sgERN1, 100 nM | 100 ± 3
sgRNA knockout: sgERN1, 1000 nM | 131 ± 8
sgRNA knockout: sgERN1, 10000 nM | 62.2 ± 12
sgRNA knockout: sgHSF1, 10 nM | 103 ± 2.8
sgRNA knockout: sgHSF1, 100 nM | 86 ± 17
sgRNA knockout: sgHSF1, 1000 nM | 100 ± 30
sgRNA knockout: sgHSF1, 10000 nM | 54.8 ± 7.2
sgRNA knockout: sgHSF2, 10 nM | 80.1 ± 8.3
sgRNA knockout: sgHSF2, 100 nM | 89.1 ± 17
sgRNA knockout: sgHSF2, 1000 nM | 102 ± 35
sgRNA knockout: sgHSF2, 10000 nM | 47.6 ± 2.6
sgRNA knockout: sgKEAP1, 10 nM | 78.3 ± 7.2
sgRNA knockout: sgKEAP1, 100 nM | 99.54 ± 0.85
sgRNA knockout: sgKEAP1, 1000 nM | 105 ± 24
sgRNA knockout: sgKEAP1, 10000 nM | 58.237 ± 0.029
sgRNA knockout: sgNFE2L2, 10 nM | 89.1 ± 7.2
sgRNA knockout: sgNFE2L2, 100 nM | 98.2 ± 3.3
sgRNA knockout: sgNFE2L2, 1000 nM | 105 ± 7.2
sgRNA knockout: sgNFE2L2, 10000 nM | 48.1 ± 2.4
sgRNA knockout: sgSLC35F2, 10 nM | 95.4 ± 35
sgRNA knockout: sgSLC35F2, 100 nM | 71.1 ± 14
sgRNA knockout: sgSLC35F2, 1000 nM | 116 ± 3.8
sgRNA knockout: sgSLC35F2, 10000 nM | 57.4 ± 6.2
sgRNA knockout: sgXBP1, 10 nM | 80.5 ± 1.5
sgRNA knockout: sgXBP1, 100 nM | 85.1 ± 8.2
sgRNA knockout: sgXBP1, 1000 nM | 118 ± 5.6
sgRNA knockout: sgXBP1, 10000 nM | 54.4 ± 2.4

Cc1cn(-c2cc(NC(=O)c3ccc(C)c(Nc4nccc(-c5cccnc5)n4)c3)cc(C(F)(F)F)c2)cn1 [Nilotinib]
Conditions | relative cell number
sgRNA knockout: sgATF3, 10 nM | 103.4 ± 0.76
sgRNA knockout: sgATF3, 100 nM | 98.71 ± 0.27
sgRNA knockout: sgATF3, 1000 nM | 86.7 ± 17
sgRNA knockout: sgATF3, 10000 nM | 24.7 ± 14
sgRNA knockout: sgATF4, 10 nM | 96.54 ± 0.58
sgRNA knockout: sgATF4, 100 nM | 96.8 ± 20
sgRNA knockout: sgATF4, 1000 nM | 94 ± 31
sgRNA knockout: sgATF4, 10000 nM | 21 ± 4
sgRNA knockout: sgATF6, 10 nM | 107 ± 26
sgRNA knockout: sgATF6, 100 nM | 92.5 ± 2.9
sgRNA knockout: sgATF6, 1000 nM | 91.4 ± 1.1
sgRNA knockout: sgATF6, 10000 nM | 19.5 ± 10
sgRNA knockout: sgATG7, 10 nM | 114 ± 19
sgRNA knockout: sgATG7, 100 nM | 90.5 ± 1.7
sgRNA knockout: sgATG7, 1000 nM | 96 ± 11
sgRNA knockout: sgATG7, 10000 nM | 26.8 ± 18
sgRNA knockout: sgERN1, 10 nM | 83.6 ± 10
sgRNA knockout: sgERN1, 100 nM | 107 ± 1.3
sgRNA knockout: sgERN1, 1000 nM | 125 ± 15
sgRNA knockout: sgERN1, 10000 nM | 18.8 ± 0.3
sgRNA knockout: sgHSF1, 10 nM | 86.4 ± 19
sgRNA knockout: sgHSF1, 100 nM | 102 ± 3.5
sgRNA knockout: sgHSF1, 1000 nM | 96.7 ± 8.7
sgRNA knockout: sgHSF1, 10000 nM | 19.9 ± 6.1
sgRNA knockout: sgHSF2, 10 nM | 110 ± 5.4
sgRNA knockout: sgHSF2, 100 nM | 97.8 ± 7.9
sgRNA knockout: sgHSF2, 1000 nM | 99.9 ± 9.4
sgRNA knockout: sgHSF2, 10000 nM | 23.6 ± 1
sgRNA knockout: sgKEAP1, 10 nM | 78.2 ± 18
sgRNA knockout: sgKEAP1, 100 nM | 98.9 ± 11
sgRNA knockout: sgKEAP1, 1000 nM | 106 ± 17
sgRNA knockout: sgKEAP1, 10000 nM | 22.5 ± 3.8
sgRNA knockout: sgNFE2L2, 10 nM | 68.4 ± 4.7
sgRNA knockout: sgNFE2L2, 100 nM | 101 ± 13
sgRNA knockout: sgNFE2L2, 1000 nM | 101.8 ± 0.5
sgRNA knockout: sgNFE2L2, 10000 nM | 24.3 ± 7.7
sgRNA knockout: sgSLC35F2, 10 nM | 99.6 ± 21
sgRNA knockout: sgSLC35F2, 100 nM | 92.1 ± 9.3
sgRNA knockout: sgSLC35F2, 1000 nM | 91.2 ± 20
sgRNA knockout: sgSLC35F2, 10000 nM | 16.7 ± 3.2
sgRNA knockout: sgXBP1, 10 nM | 102 ± 13
sgRNA knockout: sgXBP1, 100 nM | 96.9 ± 20
sgRNA knockout: sgXBP1, 1000 nM | 94.3 ± 22
sgRNA knockout: sgXBP1, 10000 nM | 16.7 ± 9.9

O=C(c1cc(Cc2n[nH]c(=O)c3ccccc23)ccc1F)N1CCN(C(=O)C2CC2)CC1 [Olaparib]
Conditions | relative cell number
sgRNA knockout: sgATF3, 10 nM | 101 ± 25
sgRNA knockout: sgATF3, 100 nM | 119 ± 40
sgRNA knockout: sgATF3, 1000 nM | 104 ± 51
sgRNA knockout: sgATF3, 10000 nM | 56.3 ± 22
sgRNA knockout: sgATF4, 10 nM | 88.3 ± 4.7
sgRNA knockout: sgATF4, 100 nM | 87.2 ± 2.5
sgRNA knockout: sgATF4, 1000 nM | 77.3 ± 19
sgRNA knockout: sgATF4, 10000 nM | 62.8 ± 1.1
sgRNA knockout: sgATF6, 10 nM | 96 ± 35
sgRNA knockout: sgATF6, 100 nM | 86.9 ± 8.6
sgRNA knockout: sgATF6, 1000 nM | 62.5 ± 16
sgRNA knockout: sgATF6, 10000 nM | 51.8 ± 21
sgRNA knockout: sgATG7, 10 nM | 80.6 ± 10
sgRNA knockout: sgATG7, 100 nM | 127 ± 9.8
sgRNA knockout: sgATG7, 1000 nM | 82.5 ± 5.3
sgRNA knockout: sgATG7, 10000 nM | 45.2 ± 16
sgRNA knockout: sgERN1, 10 nM | 75.2 ± 8.4
sgRNA knockout: sgERN1, 100 nM | 83.1 ± 22
sgRNA knockout: sgERN1, 1000 nM | 82 ± 15
sgRNA knockout: sgERN1, 10000 nM | 49.6 ± 3.5
sgRNA knockout: sgHSF1, 10 nM | 82.5 ± 2.5
sgRNA knockout: sgHSF1, 100 nM | 72.5 ± 2.1
sgRNA knockout: sgHSF1, 1000 nM | 76.1 ± 10
sgRNA knockout: sgHSF1, 10000 nM | 57.5 ± 17
sgRNA knockout: sgHSF2, 10 nM | 101 ± 12
sgRNA knockout: sgHSF2, 100 nM | 74.9 ± 19
sgRNA knockout: sgHSF2, 1000 nM | 67.1 ± 23
sgRNA knockout: sgHSF2, 10000 nM | 58.4 ± 10
sgRNA knockout: sgKEAP1, 10 nM | 91.2 ± 6.2
sgRNA knockout: sgKEAP1, 100 nM | 83.4 ± 2.7
sgRNA knockout: sgKEAP1, 1000 nM | 74.5 ± 9.5
sgRNA knockout: sgKEAP1, 10000 nM | 55.5 ± 0.97
sgRNA knockout: sgNFE2L2, 10 nM | 91.45 ± 0.88
sgRNA knockout: sgNFE2L2, 100 nM | 94.9 ± 8.7
sgRNA knockout: sgNFE2L2, 1000 nM | 87.3 ± 4.4
sgRNA knockout: sgNFE2L2, 10000 nM | 64 ± 6.8
sgRNA knockout: sgSLC35F2, 10 nM | 86.2 ± 12
sgRNA knockout: sgSLC35F2, 100 nM | 87.2 ± 1.5
sgRNA knockout: sgSLC35F2, 1000 nM | 76.4 ± 1.1
sgRNA knockout: sgSLC35F2, 10000 nM | 60.7 ± 17
sgRNA knockout: sgXBP1, 10 nM | 82.5 ± 8
sgRNA knockout: sgXBP1, 100 nM | 107 ± 9.7
sgRNA knockout: sgXBP1, 1000 nM | 84 ± 37
sgRNA knockout: sgXBP1, 10000 nM | 68 ± 13
